Data reported in article PMC10933417.
These are yes or no findings as the source states them, for the method shown. In cells and extracts the contact can be indirect. Some entries that bind do so weakly or less than the wild type. For part of these data: Tags and fused reporters may be left off the sequences shown.

Protein sequences, listed by entry. Tags and fused reporters are not part of them. Lines headed by an entry give the natural chain unless they say otherwise; changes in a name come on top.
UniProt Q13535: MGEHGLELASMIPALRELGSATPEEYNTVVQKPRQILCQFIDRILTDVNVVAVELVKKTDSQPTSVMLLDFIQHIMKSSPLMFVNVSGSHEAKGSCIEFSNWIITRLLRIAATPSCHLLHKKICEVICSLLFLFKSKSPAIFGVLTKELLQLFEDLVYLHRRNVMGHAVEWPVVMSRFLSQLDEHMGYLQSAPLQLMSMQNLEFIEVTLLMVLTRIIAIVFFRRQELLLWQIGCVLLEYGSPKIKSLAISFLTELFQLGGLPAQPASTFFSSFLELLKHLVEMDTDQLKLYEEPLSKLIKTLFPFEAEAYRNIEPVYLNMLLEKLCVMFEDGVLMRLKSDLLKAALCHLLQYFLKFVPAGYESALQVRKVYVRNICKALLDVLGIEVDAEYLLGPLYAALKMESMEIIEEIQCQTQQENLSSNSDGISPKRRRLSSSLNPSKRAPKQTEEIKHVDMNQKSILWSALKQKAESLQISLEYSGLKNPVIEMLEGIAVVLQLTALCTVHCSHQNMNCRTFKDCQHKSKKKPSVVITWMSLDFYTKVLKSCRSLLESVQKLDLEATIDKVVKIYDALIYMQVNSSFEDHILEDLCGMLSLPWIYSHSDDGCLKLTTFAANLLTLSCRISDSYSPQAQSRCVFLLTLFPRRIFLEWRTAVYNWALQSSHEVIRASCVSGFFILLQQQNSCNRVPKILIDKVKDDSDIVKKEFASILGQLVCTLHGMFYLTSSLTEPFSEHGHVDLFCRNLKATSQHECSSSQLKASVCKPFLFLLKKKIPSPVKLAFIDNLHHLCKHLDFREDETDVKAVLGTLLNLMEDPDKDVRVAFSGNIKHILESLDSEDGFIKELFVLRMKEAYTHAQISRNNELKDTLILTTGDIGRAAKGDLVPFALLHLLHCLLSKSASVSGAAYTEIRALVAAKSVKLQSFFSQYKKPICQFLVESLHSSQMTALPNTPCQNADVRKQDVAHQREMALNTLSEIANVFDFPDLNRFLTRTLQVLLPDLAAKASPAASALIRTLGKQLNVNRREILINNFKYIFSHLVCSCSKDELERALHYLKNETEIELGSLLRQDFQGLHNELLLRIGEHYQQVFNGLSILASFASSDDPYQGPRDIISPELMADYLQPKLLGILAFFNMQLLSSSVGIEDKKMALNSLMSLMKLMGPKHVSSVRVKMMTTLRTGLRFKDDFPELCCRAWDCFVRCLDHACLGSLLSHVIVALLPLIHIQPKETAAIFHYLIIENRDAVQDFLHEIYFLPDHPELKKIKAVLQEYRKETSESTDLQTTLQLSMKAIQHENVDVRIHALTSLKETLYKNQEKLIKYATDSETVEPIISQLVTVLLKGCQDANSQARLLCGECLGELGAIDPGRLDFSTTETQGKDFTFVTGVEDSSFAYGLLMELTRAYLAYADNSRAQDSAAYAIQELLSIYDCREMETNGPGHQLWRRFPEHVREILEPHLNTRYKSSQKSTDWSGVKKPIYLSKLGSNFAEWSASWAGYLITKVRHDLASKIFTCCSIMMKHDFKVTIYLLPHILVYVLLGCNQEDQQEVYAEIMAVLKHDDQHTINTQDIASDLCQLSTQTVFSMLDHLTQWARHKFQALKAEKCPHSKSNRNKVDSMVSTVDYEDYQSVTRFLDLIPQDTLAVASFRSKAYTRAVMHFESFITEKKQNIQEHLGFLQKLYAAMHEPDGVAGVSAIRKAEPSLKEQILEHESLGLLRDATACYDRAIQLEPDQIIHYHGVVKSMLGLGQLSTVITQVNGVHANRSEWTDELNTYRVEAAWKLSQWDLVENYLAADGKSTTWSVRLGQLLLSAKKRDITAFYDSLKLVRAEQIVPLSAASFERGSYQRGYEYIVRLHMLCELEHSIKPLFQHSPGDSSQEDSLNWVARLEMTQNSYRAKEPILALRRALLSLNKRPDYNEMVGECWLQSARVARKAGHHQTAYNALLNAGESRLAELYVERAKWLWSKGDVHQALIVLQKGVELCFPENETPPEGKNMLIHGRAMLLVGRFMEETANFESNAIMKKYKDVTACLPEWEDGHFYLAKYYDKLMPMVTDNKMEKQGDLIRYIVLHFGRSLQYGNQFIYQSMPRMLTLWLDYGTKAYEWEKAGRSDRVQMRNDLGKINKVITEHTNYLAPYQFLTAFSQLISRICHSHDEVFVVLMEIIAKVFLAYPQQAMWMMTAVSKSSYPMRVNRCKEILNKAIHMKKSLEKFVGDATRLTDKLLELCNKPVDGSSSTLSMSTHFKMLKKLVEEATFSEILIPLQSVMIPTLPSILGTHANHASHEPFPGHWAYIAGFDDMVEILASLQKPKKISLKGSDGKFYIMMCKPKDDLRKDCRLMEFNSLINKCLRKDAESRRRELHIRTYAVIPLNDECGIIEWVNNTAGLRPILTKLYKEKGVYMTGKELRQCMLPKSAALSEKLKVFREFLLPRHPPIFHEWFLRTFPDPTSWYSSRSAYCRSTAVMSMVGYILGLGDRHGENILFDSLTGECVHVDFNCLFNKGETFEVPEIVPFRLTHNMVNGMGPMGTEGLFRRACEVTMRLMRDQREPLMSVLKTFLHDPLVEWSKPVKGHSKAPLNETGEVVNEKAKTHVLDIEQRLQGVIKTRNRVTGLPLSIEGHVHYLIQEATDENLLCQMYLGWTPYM
UniProt Q09028: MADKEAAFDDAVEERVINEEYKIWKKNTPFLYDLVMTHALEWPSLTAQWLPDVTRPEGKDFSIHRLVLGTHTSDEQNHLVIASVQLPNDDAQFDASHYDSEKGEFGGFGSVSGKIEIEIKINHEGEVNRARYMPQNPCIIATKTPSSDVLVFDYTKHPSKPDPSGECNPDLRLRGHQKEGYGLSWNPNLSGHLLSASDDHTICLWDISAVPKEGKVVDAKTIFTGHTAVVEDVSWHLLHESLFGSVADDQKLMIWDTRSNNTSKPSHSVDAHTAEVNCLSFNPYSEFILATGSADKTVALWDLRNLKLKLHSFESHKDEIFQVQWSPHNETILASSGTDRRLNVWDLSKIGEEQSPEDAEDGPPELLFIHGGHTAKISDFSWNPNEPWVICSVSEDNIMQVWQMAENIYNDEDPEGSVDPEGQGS
UniProt Q13547: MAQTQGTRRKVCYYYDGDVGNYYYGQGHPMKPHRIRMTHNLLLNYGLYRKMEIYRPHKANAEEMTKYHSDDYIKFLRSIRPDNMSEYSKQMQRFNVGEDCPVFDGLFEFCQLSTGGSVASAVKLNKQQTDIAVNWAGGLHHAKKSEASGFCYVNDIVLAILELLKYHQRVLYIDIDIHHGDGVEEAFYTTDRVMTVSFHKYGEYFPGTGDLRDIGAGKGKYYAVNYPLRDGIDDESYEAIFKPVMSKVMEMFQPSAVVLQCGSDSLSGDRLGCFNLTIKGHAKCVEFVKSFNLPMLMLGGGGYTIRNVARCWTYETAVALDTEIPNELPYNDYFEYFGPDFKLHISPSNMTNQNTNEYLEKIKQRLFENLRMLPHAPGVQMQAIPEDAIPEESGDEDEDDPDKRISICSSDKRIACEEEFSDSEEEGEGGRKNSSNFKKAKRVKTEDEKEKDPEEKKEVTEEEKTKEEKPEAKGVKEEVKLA

T1: Myc-DDK-tagged ZNF827 (wild type) (UniProt Q17R98)
T1 sequence: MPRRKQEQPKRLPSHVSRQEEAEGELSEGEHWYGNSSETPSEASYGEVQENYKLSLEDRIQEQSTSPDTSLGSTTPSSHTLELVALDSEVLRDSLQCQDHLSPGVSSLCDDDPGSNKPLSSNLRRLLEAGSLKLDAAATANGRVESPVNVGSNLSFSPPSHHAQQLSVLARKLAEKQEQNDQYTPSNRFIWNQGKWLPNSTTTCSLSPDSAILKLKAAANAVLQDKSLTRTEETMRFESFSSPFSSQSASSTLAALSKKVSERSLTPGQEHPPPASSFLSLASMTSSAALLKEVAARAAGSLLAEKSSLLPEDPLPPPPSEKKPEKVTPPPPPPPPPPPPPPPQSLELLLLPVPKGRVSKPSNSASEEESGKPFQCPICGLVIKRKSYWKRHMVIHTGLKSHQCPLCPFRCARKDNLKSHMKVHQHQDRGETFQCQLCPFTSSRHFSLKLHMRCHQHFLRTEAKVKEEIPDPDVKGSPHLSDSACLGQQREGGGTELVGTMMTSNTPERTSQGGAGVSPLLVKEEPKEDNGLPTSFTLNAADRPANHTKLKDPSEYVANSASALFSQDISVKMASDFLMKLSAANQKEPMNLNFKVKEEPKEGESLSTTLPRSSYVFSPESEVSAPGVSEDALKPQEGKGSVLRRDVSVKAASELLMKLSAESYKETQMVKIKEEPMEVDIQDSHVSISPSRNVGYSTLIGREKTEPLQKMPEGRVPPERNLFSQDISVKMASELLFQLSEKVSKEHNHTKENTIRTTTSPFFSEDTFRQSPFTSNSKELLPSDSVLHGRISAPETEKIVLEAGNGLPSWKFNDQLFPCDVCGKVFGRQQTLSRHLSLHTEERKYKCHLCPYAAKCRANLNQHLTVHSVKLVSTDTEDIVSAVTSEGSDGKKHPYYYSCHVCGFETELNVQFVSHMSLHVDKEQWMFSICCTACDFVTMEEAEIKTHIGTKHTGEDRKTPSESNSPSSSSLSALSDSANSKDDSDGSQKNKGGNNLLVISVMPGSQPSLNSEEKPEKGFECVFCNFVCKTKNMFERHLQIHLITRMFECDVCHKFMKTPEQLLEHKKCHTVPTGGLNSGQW

T2: ZNF827 (overexpressed; precipitated with a direct ZNF827 antibody) (UniProt Q17R98)
T2 sequence: T1 sequence

B1: Ewing tumour-associated antigen 1 (ETAA1) (protein, UniProt Q9NY74 1-926)
chain: MSRRRKHDDSPSPKKTPHKTVAAEECGSVVEPGRRRLRSARGSWPCGAREGPPGPVRQREQPPTAALCSKSNPEERYETPKRALKMDSLSSSFSSPNDPDGQNDIFWDQNSPLTKQLGKGRKKQIYTTDSDEISHIVNRIAPQDEKPTTNSMLDMWIGETAIPCTPSVAKGKSRAKISCTKLKTQSQEEELMKLAKQFDKNMEELDVIQEQNKRNYDFTQMISETEILSNYKDNIQMWSLHNIVPEIDNATKKPIKGNTKISVANNQNSSQKPFDQIAEAAFNAIFDGSTQKCSGQLSQELPEAFWSTSNTTFVKTNALKEEKIITNETLVIEKLSNKTPRSLSSQVDTPIMTKSCVTSCTKEPETSNKYIDAFTTSDFEDDWENLLGSEPFAMQNIDMPELFPSKTAHVTDQKEICTFNSKTVKNTSRANTSPDARLGDSKVLQDLSSKTYDRELIDAEYRFSPNSNKSNKLSTGNKMKFENSSNKIVIQDEIQNCIVTSNLTKIKEDILTNSTEASERKSALNTRYSNEQKNKCILNQSIKAPVNTDLFGSANLGSKTSVSNPNQTSASKVGSFFDDWNDPSFANEIIKACHQLDNTWEADDVDDDLLYQACDDIERLTQQQDIRKDSKTSESICEINNNSEHGAKLTQQQDIRKDSKTSESICEINNNSEHGAKNMFAISKQGSNLVQSKHLNPGSISVQTSLTNSSQIDKPMKMEKGEMYGNSPRFLGATNLTMYSKISNCQINNLHVSYTNTDVPIQVNSSKLVLPGSSSLNVTSDHMNTEITTYKKKLSTNQPCHKTVTDEAQSNLNTTVGFSKFTFTRMKNSQILSQFNQNCITGSMSDTKITQGVEKKKGVNPLLEEAVGQQSLVKLSESLKQSSKEEEEKNRKCSPEEIQRKRQEALVRRMAKARASSVNAAPTSFL
B2: ATR-interacting protein (ATRIP) (protein, UniProt Q8WXE1 1-791)
chain: MAGTSAPGSKRRSEPPAPRPGPPPGTGHPPSKRARGFSAAAAPDPDDPFGAHGDFTADDLEELDTLASQALSQCPAAARDVSSDHKVHRLLDGMSKNPSGKNRETVPIKDNFELEVLQAQYKELKEKMKVMEEEVLIKNGEIKILRDSLHQTESVLEEQRRSHFLLEQEKTQALSDKEKEFSKKLQSLQSELQFKDAEMNELRTKLQTSERANKLAAPSVSHVSPRKNPSVVIKPEACSPQFGKTSFPTKESFSANMSLPHPCQTESGYKPLVGREDSKPHSLRGDSIKQEEAQKSFVDSWRQRSNTQGSILINLLLKQPLIPGSSLSLCHLLSSSSESPAGTPLQPPGFGSTLAGMSGLRTTGSYDGSFSLSALREAQNLAFTGLNLVARNECSRDGDPAEGGRRAFPLCQLPGAVHFLPLVQFFIGLHCQALQDLAAAKRSGAPGDSPTHSSCVSSGVETNPEDSVCILEGFSVTALSILQHLVCHSGAVVSLLLSGVGADSAAGEGNRSLVHRLSDGDMTSALRGVADDQGQHPLLKMLLHLLAFSSAATGHLQASVLTQCLKVLVKLAENTSCDFLPRFQCVFQVLPKCLSPETPLPSVLLAVELLSLLADHDQLAPQLCSHSEGCLLLLLYMYITSRPDRVALETQWLQLEQEVVWLLAKLGVQSPLPPVTGSNCQCNVEVVRALTVMLHRQWLTVRRAGGPPRTDQQRRTVRCLRDTVLLLHGLSQKDKLFMMHCVEVLHQFDQVMPGVSMLIRGLPDVTDCEEAALDDLCAAETDVEDPEVECG
B3: Rad9 (9-1-1 DNA damage sensor complex component) (protein, UniProt Q99638 1-391)
chain: MKCLVTGGNVKVLGKAVHSLSRIGDELYLEPLEDGLSLRTVNSSRSAYACFLFAPLFFQQYQAATPGQDLLRCKILMKSFLSVFRSLAMLEKTVEKCCISLNGRSSRLVVQLHCKFGVRKTHNLSFQDCESLQAVFDPASCPHMLRAPARVLGEAVLPFSPALAEVTLGIGRGRRVILRSYHEEEADSTAKAMVTEMCLGEEDFQQLQAQEGVAITFCLKEFRGLLSFAESANLNLSIHFDAPGRPAIFTIKDSLLDGHFVLATLSDTDSHSQDLGSPERHQPVPQLQAHSTPHPDDFANDDIDSYMIAMETTIGNEGSRVLPSISLSPGPQPPKSPGPHSEEEDEAEPSTVPGTPPPKKFRSLFFGSILAPVRSPQGPSPVLAEDSEGEG

Experiments:
[1] = target: T1, Myc-DDK-tagged ZNF827 (wild type); test: co-IP; after treatment with benzonase; IP with a Myc antibody, western blot of the partners; U-2 OS cells overexpressing Myc-tagged ZNF827, ZNF827 ΔRRK and ZNF827 ZnFΔ1-3
[2] = target: T2, ZNF827 (overexpressed; precipitated with a direct ZNF827 antibody); test: co-IP; IP with a direct ZNF827 antibody, western blot of the partners; U-2 OS cells overexpressing ZNF827; after treatment with the nuclease benzonase
[3] = target: T2, ZNF827 (overexpressed; precipitated with a direct ZNF827 antibody); test: co-IP; IP with a direct ZNF827 antibody, western blot of the partners; U-2 OS cells overexpressing ZNF827 (Fig. 1E) and HT1080 cells (Supplementary Fig. 1F); without benzonase
[4] = target: T2, ZNF827 (overexpressed; precipitated with a direct ZNF827 antibody); test: co-IP; co-IP of ZNF827 (Supplementary Fig. 2A); cells, antibody and construct not shown

Molecule	binding [1]	binding [2]	binding [3]	binding [4]
Ataxia telangiectasia mutated and Rad3-related (ATR) (from UniProt Q13535 1-2644)	binds	–	–	–
RBBP4 (NuRD component) (from UniProt Q09028 1-425)	–	binds	binds	–
HDAC1 (NuRD component) (from UniProt Q13547 1-482)	–	binds	binds	–
B1	binds	–	–	–
B2	binds	–	–	binds
B3	–	–	–	binds
